Test results: PubChem BioAssay AID2685 (National Center for Advancing Translational Sciences (NCATS), 2010)
This is one part of the list. Shown are side measurements of this screen, not its main read-out; they come without a call. Compounds called inactive in the main read-out are mostly missing here. Words in brackets tell the shape of the fitted curve; partial curves, single points and poor fits give uncertain potencies.

Assay: qHTS Assay for Lipid Storage Modulators in Drosophila S3 Cells;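 as to cell number change: cells counted by Cell Tracker Red CMTPX staining in the red channel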
Settings: BODIPY lipid droplet fluorescence, 18-24 h; for cell number change: measured here: cell count max response, cells fed with added oleic acid
Method in brief: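 Drosophila S3 cells loaded with oleic acid (400 uM, as added) and compounds at several concentrations; lipid droplets imaged by 488-nm laser-scanning cytometry, 500–530 nm intensity and object ratio to cell channel. Percent activity normalized to 20 uM Triacsin C.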

[1] = measured here: cell number channel AC50, cells fed with added oleic acid
[2] = measured here: lipid fluorescence (Fed channel) AC50, cells fed with added oleic acid

O=C(CSC(=S)N1CCCC1)N1CCN(S(=O)(=O)c2ccccc2F)CC1
cell number change: 22.8%

CCOc1ccc(S(=O)(=O)NCCC(=O)OCC(=O)c2ccc(NC(C)=O)cc2)cc1
cell number change: 2.6%
AC50 [1]: 0.146 µM [falling, full curve, poor fit]
AC50 [2]: 0.13 µM [falling, full curve, poor fit]

Cn1nccc1C(=O)OCC(=O)Nc1ccccc1Cl
cell number change: -24.2%
AC50 [2]: 4.11 µM [falling, full curve]

CCOc1cc(/C=C2\SC(=S)N(NC(=O)c3cccnc3)C2=O)ccc1O
cell number change: 14.6%

COc1ccc(S(=O)(=O)NCC2CCCN(Cc3cccnc3)C2)cc1 (stereo not given)
cell number change: 32.4%
AC50 [1]: 0.0651 µM [rising, full curve, poor fit]
AC50 [2]: 0.231 µM [rising, full curve, poor fit]

Cc1cccc(NC(=O)CSc2nc(C)c(CC(=O)c3ccc(Br)cc3)c(C)c2C#N)c1C
cell number change: 7.36%
AC50 [2]: 3.66 µM [rising, partial curve]

O=C(NCCCC(=O)N1CCOCC1)c1cccnc1
cell number change: -4.27%

Cc1ccc(C)c(NC(=O)/C(C#N)=C/c2cn(CC(=O)NCc3ccco3)c3ccccc23)c1
cell number change: -11.9%
AC50 [2]: 9.2 µM [falling, partial curve, poor fit]

O=C(NCC1CCCO1)c1ccc2c(c1)C(=O)N(c1cccc([N+](=O)[O-])c1)C2=O (stereo not given)
AC50 [2]: 29.1 µM [falling, single point]

CC1=CC(C)(C)N2C(=O)C3(SCC(=O)N3c3ccc(O)cc3)c3cc(C)cc1c32 (stereo not given)
cell number change: -23.8%
AC50 [2]: 0.411 µM [rising, full curve]

CC(OC(=O)c1nc(Cl)ccc1Cl)C(=O)Nc1ccc2c(c1)OCCO2 (stereo not given)
cell number change: 3.21%

CCCCN(C(=O)CSCC(=O)Nc1ccc(OC)cc1)c1c(N)n(CCC)c(=O)[nH]c1=O
cell number change: -13.4%
AC50 [2]: 0.0058 µM [falling, full curve, poor fit]

CC1CCCN(C(=O)c2ccc3c(c2)OCO3)C1 (stereo not given)
cell number change: -13.1%
AC50 [2]: 2.31 µM [rising, single point]

Cc1c(C(=O)N2CCOCC2)[nH]c2ccc(OCc3ccccc3)cc12
cell number change: -21%

O=C(Nc1c2c(nn1-c1ccc(Cl)cc1)CS(=O)(=O)C2)c1ccc2c(c1)OCO2
AC50 [1]: 6.51 µM [rising, single point]
AC50 [2]: 6.51 µM [rising, partial curve, poor fit]

CN1C[C@@H]2C(c3ccccc3)C3(c4cccnc4)CC2(C3)[C@H]1c1ccccc1 (stereo not given in full)
cell number change: 19.5%
AC50 [2]: 9.2 µM [rising, partial curve, poor fit]

CCCC(=O)N1CCN(c2nc3ccc(Br)cc3s2)CC1
cell number change: 4.25%

CSCC[C@H](NC(=O)OC(C)(C)C)c1nnc(SCc2ccc(F)cc2)o1
cell number change: 42.8%
AC50 [1]: 29.1 µM [rising, single point]
AC50 [2]: 18.4 µM [rising, partial curve]

Cc1nnc(SCC(=O)Nc2c(Cl)cccc2Cl)n(N)c1=O
cell number change: -25.3%

CC(C)Sc1snnc1-c1ccccc1
cell number change: 16.1%
AC50 [2]: 0.13 µM [rising, full curve, poor fit]

O=S(=O)(NCc1ccc(F)cc1)c1cc(Br)ccc1Br
cell number change: -27.7%
AC50 [1]: 2.59 µM [falling, single point]

CCOC(=O)c1oc2ccc(S(=O)(=O)n3nc(-c4ccc(Cl)cc4)cc3N)cc2c1C
cell number change: -17.9%

COc1ccc(NC(=O)CCNC(=O)c2ccco2)cc1S(=O)(=O)N(C)C
cell number change: 2.94%
AC50 [2]: 29.1 µM [rising, single point]

N=C1C(c2nc3ccccc3s2)=C(O)CN1NC(=O)c1ccc([N+](=O)[O-])cc1
cell number change: -1.24%

N=c1c2c(n(Cc3ccc(Cl)c(Cl)c3)c3c1CCC3)CCCC2
cell number change: -70.2%
AC50 [1]: 14.6 µM [falling, partial curve]
AC50 [2]: 13 µM [falling, partial curve]

COc1cc(/C=N\NC(=O)c2sc(N)nc2C)cc(OC)c1OC
cell number change: -14.8%
AC50 [1]: 0.092 µM [falling, full curve, poor fit]
AC50 [2]: 29.1 µM [rising, single point]

CCn1c(CNc2nc(-c3ccccc3)cs2)nnc1SCC(=O)NCc1ccccc1
AC50 [2]: 23.1 µM [falling, partial curve, poor fit]

O=S(=O)(c1ccc(F)cc1)N1CCC(c2nc3ccccc3[nH]2)CC1
cell number change: 5.13%

COC(=O)c1ccccc1NC(=S)NC(=O)CC(C)C
cell number change: -24.6%

Oc1ccc(-c2nccc(-c3ccc(Cl)cc3Cl)n2)cc1
cell number change: -36.2%

Cc1cc(C)nc(N/N=C/c2ccc3c(c2)OCCO3)n1
cell number change: 109%
AC50 [1]: 0.651 µM [rising, single point]

Cc1ccc(CNC(=O)Cc2ccc(-n3cccc3)cc2)cc1
cell number change: -6.01%
AC50 [2]: 0.651 µM [falling, single point]

O=C(COC(=O)c1ccccc1-n1cnnn1)c1ccc(F)cc1
cell number change: -17.6%
AC50 [2]: 0.326 µM [rising, partial curve, poor fit]

O=C(CC(=O)NC1CCCCC1)N/N=C/c1ccccc1Cl
cell number change: -34.5%
AC50 [1]: 18.4 µM [falling, single point]
AC50 [2]: 25.9 µM [falling, single point]

CCC(=O)Nc1ccc(C(=O)CN2C(=O)NC3(CCOc4ccccc43)C2=O)cc1 (stereo not given)
cell number change: 9.14%
AC50 [2]: 9.2 µM [rising, single point]

O=C(Cn1nnc(-c2cccc(C(F)(F)F)c2)n1)NC(=O)NCc1ccco1
cell number change: -42.7%
AC50 [1]: 20.6 µM [falling, single point]
AC50 [2]: 18.4 µM [falling, single point]

C/C=C\C(=O)Nc1cccc(C2=NOC3(C2)C[C@H](C(N)=O)N(C(=O)/C=C/CC)C3)c1 (stereo not given in full)
cell number change: -41.2%
AC50 [1]: 29.1 µM [falling, single point]
AC50 [2]: 25.9 µM [falling, partial curve]

CC(Oc1ccc2c(-c3ccccc3)cc(=O)oc2c1)C(=O)NCC(O)c1ccccc1 (stereo not given)
cell number change: 27.1%
AC50 [2]: 29.1 µM [rising, single point]

COc1cc(Cl)c(C)cc1NC(=O)CC1SC(N2CCOCC2)=NC1=O (stereo not given)
cell number change: -46%
AC50 [1]: 29.1 µM [falling, single point]
AC50 [2]: 13 µM [rising, partial curve]

CCOC(=O)C1CCN(C(=O)Cn2cccc2C(=O)c2ccccc2)CC1
AC50 [2]: 0.731 µM [falling, full curve]

Cc1nnc(SCC(=O)NCc2ccc3c(c2)OCO3)s1
cell number change: -116%
AC50 [1]: 29.1 µM [falling, single point]
AC50 [2]: 29.1 µM [falling, single point]

CCOC(=O)C(NC(C)=O)(NC(C)C)C(F)(F)F (stereo not given)
cell number change: -37.8%

O=c1c2ccccc2nc(/C=C/c2cccnc2)n1CCc1ccccc1
cell number change: 17.3%
AC50 [2]: 5.8 µM [rising, partial curve]

CC(Sc1nnc2c(n1)C1(C)CCC2C1(C)C)C(=O)Nc1ccccc1 (stereo not given)
cell number change: -27.3%
AC50 [2]: 0.461 µM [falling, single point]

CCOCCCNC(=S)Nc1cc(C)cc(C)c1
cell number change: -20.5%
AC50 [1]: 0.291 µM [rising, full curve]

COc1ccc(C(=O)CSc2n[nH]c(-c3ccncc3)n2)cc1[N+](=O)[O-]
cell number change: -57.7%
AC50 [1]: 29.1 µM [falling, single point]
AC50 [2]: 18.4 µM [rising, single point]

Cc1ccc(S(=O)(=O)c2c(N)n(NC(=O)c3ccco3)c3nc4ccccc4nc23)cc1
cell number change: 0.166%
AC50 [1]: 1.46 µM [rising, partial curve, poor fit]
AC50 [2]: 23.1 µM [rising, single point]

CCN(CC)CCNC(=O)CNC(=O)c1nn(-c2ccc(OC)cc2)c(=O)c2ccccc12
cell number change: -8.03%
AC50 [2]: 0.00461 µM [falling, full curve, poor fit]

COC(=O)c1sccc1NC(=O)COc1cccc(C)c1
cell number change: 7.68%
AC50 [2]: 29.1 µM [rising, partial curve, poor fit]

Cc1ccc(-n2nc3c(c2NC(=O)c2ccc4c(c2)OCO4)CS(=O)C3)c(C)c1 (stereo not given)
cell number change: 30.3%
AC50 [1]: 13 µM [rising, single point]

O=C(CC1NCCNC1=O)Nc1cccc([N+](=O)[O-])c1 (stereo not given)
cell number change: -17%
AC50 [1]: 0.366 µM [falling, full curve, poor fit]
AC50 [2]: 0.291 µM [falling, full curve, poor fit]

COc1ccc(CCC(=O)Nc2cc(S(=O)(=O)N3CCCCC3)ccc2N(C)C)cc1
cell number change: 14%

COc1ccc(OCc2cc(C(=O)NC(C)Cn3cncn3)no2)c(Cl)c1 (stereo not given)
cell number change: 13.2%
AC50 [2]: 0.13 µM [rising, single point]

O=C(CSc1nc2ccccc2[nH]1)N/N=C/C=C/c1ccccc1[N+](=O)[O-]
cell number change: 6.91%
AC50 [1]: 0.461 µM [falling, full curve, poor fit]
AC50 [2]: 7.31 µM [rising, partial curve]

Cc1ccc(C(=O)/C=C\Nc2ccc(C)c(C)c2)cc1
cell number change: 7.44%
AC50 [2]: 2.31 µM [rising, full curve, poor fit]

CCN1CCN(c2cc(C)c3cc(NC(=O)c4ccncc4)ccc3n2)CC1
cell number change: 49.6%
AC50 [1]: 18.4 µM [rising, partial curve, poor fit]
AC50 [2]: 32.6 µM [rising, partial curve, poor fit]

CCN(CC)CCCNC(=O)CC1Sc2ccccc2NC1=O (stereo not given)
cell number change: 25.4%
AC50 [2]: 29.1 µM [rising, single point]

O=c1cnn(-c2ccc(Cl)cc2Cl)c(-c2ccccc2)c1
cell number change: 207%
AC50 [1]: 2.91 µM [falling, partial curve]
AC50 [2]: 6.51 µM [falling, single point]
